In patent publication US8632914B2, “Triazolium and imidazolium salts and uses thereof” (University Health Network, priority 2008, dated 2014):
For at least one compound, name, drawing or mass did not settle the structure.

Test system: P. berghei parasites
Test: In vivo evaluation: parasitemia in mice infected with P. berghei
Parameters: species or system P. berghei in female Balb/C mice
Settings: 7.5 ug/day infused once daily for three days; second experiment; day 7 (P<0.03), day 8 (P<0.04), day 9 (P<0.05), day 10 (P<0.02)
Experimental: Groups of 5 female Balb/C mice were infected with 10^6 P. berghei parasites i.p. and the parasitemia was estimated daily by examining a Giemsa-stained blood film. Once parasites were observed mice were infused once daily with saline alone (control groups) or with 18 ug/day of QT72, 18 ug/day of QT69, 0.24 ug/day of QT98, 60 ug/day of QT109, 9 ug/day of QT119, 7.5 ug/day of QT124 or 450 ug/day of chloroquine (CQ) for three days, as indicated by the arrows in FIG. 1. Average parasitemias are shown in FIG. 1 with standard error of the mean for each experimental group indicated by bars. The separate graphs in FIG. 1 indicate the results of two separate experiments.

SMILES: C[n+]1cnn(CCCCCCCCCCCCn2c[n+](C)cn2)c1 [QT124, 1,12-Bis(4-methyl-1H-1,2,4-triazolium-1-yl)dodecane diiodide]
- parasitemia vs saline control: significantly lower
